Test results from US20210130401A1 (THE REGENTS OF THE UNIVERSITY OF MICHIGAN, priority 2017, published 2021).

Assay: general procedure: hybrid (solid and solution phase) peptide synthesis; 2-chlorotrityl chloride resin (ChemPep, 1 mmol/g); EDCl, HOAt, DIPEA (solution couplings)
Details: for final purity (method not given): Waters ACQUITY UPLC, reverse-phase SunFire C18 5 um 4.6x150 mm, 0.1% TFA water/CH3CN; for cyclisation yield: cyclisation step
[1] = whole synthesis, over 4 steps, scale of the general procedure 0.1 mmol, CF3COOH salt
[2] = whole synthesis, scale of the general procedure 0.1 mmol, TFA salt
[3] = whole synthesis, over 4 steps, scale of the general procedure 0.1 mmol, TFA salt
[4] = whole synthesis, over 4 steps from resin 24, scale of the general procedure 0.1 mmol, TFA salt
[5] = late stage modification step, TFA salt

## N-((3R,6S,9S,12R)-3-cyclohexyl-6-ethyl-9-(3-guanidinopropyl)-12-methyl-2,5,8,11-tetraoxo-1,4,7,10-tetraazacyclotetradecan-12-yl)isobutyramide
[1]
  isolated yield: 51%

## N-((3R,6S,9S,12R)-3-cyclopentyl-6-ethyl-9-(3-guanidinopropyl)-12-methyl-2,5,8,11-tetraoxo-1,4,7,10-tetraazacyclotetradecan-12-yl)isobutyramide
[1]
  isolated yield: 31%

## N-((3R,6S,9S,12R)-6-((R)-sec-butyl)-9-(3-guanidinopropyl)-12-methyl-2,5,8,11-tetraoxo-3-phenyl-1,4,7,10-tetraazacyclotetradecan-12-yl)isobutyramide
Whole synthesis, TFA salt
  isolated mass: 7.8 mg
[2]
  final purity (method not given): >98%
[3]
  isolated yield: 14%

## N-((3R,6S,9S,12R)-6-ethyl-3-(2-fluorobenzyl)-9-(3-guanidinopropyl)-12-methyl-2,5,8,11-tetraoxo-1,4,7,10-tetraazacyclotetradecan-12-yl)isobutyramide
[1]
  isolated yield: 30%

## N-((3R,6S,9S,12R)-6-ethyl-3-(2-fluorophenyl)-9-(3-guanidinopropyl)-12-methyl-2,5,8,11-tetraoxo-1,4,7,10-tetraazacyclotetradecan-12-yl)isobutyramide
Whole synthesis, TFA salt
  isolated mass: 10.5 mg
[2]
  final purity (method not given): >98%
[3]
  isolated yield: 18%

## N-((3R,6S,9S,12R)-6-ethyl-3-(3-fluorobenzyl)-9-(3-guanidinopropyl)-12-methyl-2,5,8,11-tetraoxo-1,4,7,10-tetraazacyclotetradecan-12-yl)isobutyramide
[1]
  isolated yield: 31%

## N-((3R,6S,9S,12R)-6-ethyl-3-(3-fluorophenyl)-9-(3-guanidinopropyl)-12-methyl-2,5,8,11-tetraoxo-1,4,7,10-tetraazacyclotetradecan-12-yl)isobutyramide
Whole synthesis, TFA salt
  isolated mass: 8.0 mg
[2]
  final purity (method not given): >98%
[3]
  isolated yield: 14%

## N-((3R,6S,9S,12R)-6-ethyl-3-(4-fluorobenzyl)-9-(3-guanidinopropyl)-12-methyl-2,5,8,11-tetraoxo-1,4,7,10-tetraazacyclotetradecan-12-yl)isobutyramide
[1]
  isolated yield: 27%

## N-((3R,6S,9S,12R)-6-ethyl-3-(4-fluorophenyl)-9-(3-guanidinopropyl)-1,12-dimethyl-2,5,8,11-tetraoxo-1,4,7,10-tetraazacyclohexadecan-12-yl)isobutyramide
Over 3 steps from 36f, TFA salt
  cyclisation yield: 11% yield over 3 steps

## N-((3R,6S,9S,12R)-6-ethyl-3-(4-fluorophenyl)-9-(3-guanidinopropyl)-12-methyl-2,5,8,11-tetraoxo-1,4,7,10-tetraazacyclotetradecan-12-yl)isobutyramide
[1]
  isolated yield: 10%

## N-((3R,6S,9S,12R)-6-ethyl-9-(3-guanidinopropyl)-1,12-dimethyl-2,5,8,11-tetraoxo-3-phenyl-1,4,7,10-tetraazacyclohexadecan-12-yl)isobutyramide
Over 3 steps from 36e, TFA salt
  cyclisation yield: 18% yield over 3 steps

## N-((3R,6S,9S,12R)-6-ethyl-9-(3-guanidinopropyl)-2,5,8,11-tetraoxo-3-phenyl-1,4,7,10-tetraazacyclohexadecan-12-yl)isobutyramide
[3]
  isolated yield: 12.7% yield over 4 steps

## N-((3R,6S,9S,12R)-6-ethyl-9-(3-guanidinopropyl)-2,5,8,11-tetraoxo-3-phenyl-1,4,7,10-tetraazacyclopentadecan-12-yl)isobutyramide
[4]
  isolated yield: 21.5% yield over 4 steps

## N-((3R,6S,9S,12R)-6-ethyl-9-(3-guanidinopropyl)-2,5,8,11-tetraoxo-3-phenyl-1,4,7,10-tetraazacyclotetradecan-12-yl)isobutyramide
[4]
  isolated yield: 21.7% yield over 4 steps

## N-((3R,6S,9S,12R)-6-ethyl-9-(3-guanidinopropyl)-2,5,8,11-tetraoxo-3-phenyl-1,4,7,10-tetraazacyclotridecan-12-yl)isobutyramide
[4]
  isolated yield: 24.5% yield over 4 steps

## N-((3R,6S,9S,12R)-6-ethyl-9-(3-guanidinopropyl)-3,12-dimethyl-2,5,8,11-tetraoxo-1,4,7,10-tetraazacyclotetradecan-12-yl)isobutyramide
[1]
  isolated yield: 38%

## N-((3R,6S,9S,12R)-6-ethyl-9-(3-guanidinopropyl)-3,12-dimethyl-2,5,8,11-tetraoxo-3-phenyl-1,4,7,10-tetraazacyclotetradecan-12-yl)isobutyramide
Whole synthesis, TFA salt
  isolated mass: 2.5 mg
[2]
  final purity (method not given): >98%
[3]
  isolated yield: 5%

## N-((3R,6S,9S,12R)-6-ethyl-9-(3-guanidinopropyl)-3-(2-methoxyphenyl)-12-methyl-2,5,8,11-tetraoxo-1,4,7,10-tetraazacyclotetradecan-12-yl)isobutyramide
[1]
  isolated yield: 25%

## N-((3R,6S,9S,12R)-6-ethyl-9-(3-guanidinopropyl)-3-(3-methoxyphenyl)-12-methyl-2,5,8,11-tetraoxo-1,4,7,10-tetraazacyclotetradecan-12-yl)isobutyramide
[5]
  step yield: 42%
  final purity (method not given): >98%

## N-((3R,6S,9S,12R)-6-ethyl-9-(3-guanidinopropyl)-3-(4-methoxyphenyl)-12-methyl-2,5,8,11-tetraoxo-1,4,7,10-tetraazacyclotetradecan-12-yl)isobutyramide
Whole synthesis, TFA salt
  isolated mass: 6.0 mg
[2]
  final purity (method not given): >98%
[3]
  isolated yield: 10%

## N-((3R,6S,9S,12R)-6-ethyl-9-(3-guanidinopropyl)-3-isobutyl-12-methyl-2,5,8,11-tetraoxo-1,4,7,10-tetraazacyclotetradecan-12-yl)isobutyramide
[1]
  isolated yield: 35%

## N-((3R,6S,9S,12R)-6-ethyl-9-(3-guanidinopropyl)-12-methyl-2,5,8,11-tetraoxo-3-phenyl-1,4,7,10-tetraazacycloheptadecan-12-yl)isobutyramide
Over 3 steps from 36b, TFA salt
  cyclisation yield: 28% yield over 3 steps

## N-((3R,6S,9S,12R)-6-ethyl-9-(3-guanidinopropyl)-12-methyl-2,5,8,11-tetraoxo-3-phenyl-1,4,7,10-tetraazacyclohexadecan-12-yl)isobutyramide
Over 3 steps from 36a, CF3COOH salt
  cyclisation yield: 53% yield over 3 steps

## N-((3R,6S,9S,12R)-6-ethyl-9-(3-guanidinopropyl)-12-methyl-2,5,8,11-tetraoxo-3-phenyl-1,4,7,10-tetraazacycloicosan-12-yl)isobutyramide
Over 3 steps from 36d, TFA salt
  cyclisation yield: 27% yield over 3 steps

## N-((3R,6S,9S,12R)-6-ethyl-9-(3-guanidinopropyl)-12-methyl-2,5,8,11-tetraoxo-3-phenyl-1,4,7,10-tetraazacyclooctadecan-12-yl)isobutyramide
Over 3 steps from 36c, TFA salt
  cyclisation yield: 46% yield over 3 steps

## N-((3R,6S,9S,12R)-6-ethyl-9-(3-guanidinopropyl)-12-methyl-2,5,8,11-tetraoxo-3-phenyl-1,4,7,10-tetraazacyclopentadecan-12-yl)isobutyramide
[4]
  isolated yield: 19.4% yield over 4 steps

## N-((3R,6S,9S,12R)-6-ethyl-9-(3-guanidinopropyl)-12-methyl-2,5,8,11-tetraoxo-3-phenyl-1,4,7,10-tetraazacyclotetradecan-12-yl)isobutyramide
[3]
  isolated yield: 8.7% yield over 4 steps
